Data as given in PubChem BioAssay AID686938 (Drosophila RNAi Screening Center, 2013)
Screen: 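Fly genes required for calcium entry once internal stores are emptied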 (primary screen). Cell system: Drosophila S2R+ cells. Knock-down reagent: long dsRNA against Drosophila genes, about 0.25 µg dsRNA per well, roughly 10,000 cells. Timing: 5 days of knock-down before the calcium assay. Treatment: thapsigargin (SERCA pump blocker) to empty calcium stores; entry signal taken 4 min after adding it. Read-out: 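Duplicate raw fluo-4 intensities per well from a plate reader, at rest and four minutes after thapsigargin emptied calcium stores; entry-to-rest ratio filled for only some wells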. Reading the numbers: calcium entry signal: higher = stronger calcium signal after store depletion; entry to resting ratio: higher = more calcium entry relative to resting level; resting calcium signal: higher = higher resting calcium signal. Active means: 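Called when the plate z-score of the entry-to-rest ratio, mean of duplicates, falls below −3; wells with low overall dye signal (Fmax z below −2) or more than five off-targets excluded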. Calls: active = strongly reduced calcium entry; inactive = no strong reduction.
The screen tested about 23,000 reagents; below is a random part of those that have a named target and a result. Over the whole deposit, 75 (0.33%) were called active. 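Raw plate signals without normalisation; calls rest on plate z-scores that were not deposited; ratio present for only 364 wells.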 The numbers tell different reagents against one gene apart. A plus sign joins genes that one reagent is predicted to hit. Not given: the dose of the treatment.

Gene	dsRNA no.	calcium entry signal, replicate 1 (fluorescence units)	calcium entry signal, replicate 2 (fluorescence units)	entry to resting ratio	resting calcium signal, replicate 1 (fluorescence units)	resting calcium signal, replicate 2 (fluorescence units)	Outcome
kl-5 (retired record) (GeneID 3355175)	1	4.37e7	4.96e7		2.34e7	2.18e7	inactive
kl-5 (retired record) (GeneID 3355175)	2	2.88e7	3.47e7		1.33e7	1.55e7	inactive
kl-5 (retired record) (GeneID 3355175)	3	3.40e7	3.37e7		1.54e7	1.71e7	inactive
kl-5 (retired record) (GeneID 3355175)	4	6.27e7	3.45e7		2.51e7	1.39e7	inactive
mio (GeneID 33399)	1	3.46e7			1.64e7		inactive
mio (GeneID 33399)	2	2.79e7	4.08e7		1.44e7	2.36e7	inactive
drk (GeneID 36497)	1	2.36e7	2.95e7		1.19e7	1.55e7	inactive
mRpL42 (GeneID 36050)	1	4.55e7	4.15e7		2.03e7	1.77e7	inactive
fd96Ca (GeneID 43010)	1	4.04e7	6.01e7		2.01e7	2.71e7	inactive
BomS1 (GeneID 37100)	1	2.70e7	2.05e7		1.33e7	8.42e6	inactive
CG30377 (GeneID 50252)	1	3.22e7	2.57e7		1.52e7	1.23e7	inactive
CG30377 (GeneID 50252)	2	4.58e7	3.52e7		2.05e7	1.57e7	inactive
CG42525 (GeneID 8674097)	1	4.05e7	3.85e7		1.77e7	1.72e7	inactive
CG34276 (GeneID 41934)	1	3.73e7	3.42e7		1.78e7	6.36e7	inactive
CG2818 (GeneID 33597)	1	5.25e7			2.71e7		inactive
CG14292 (GeneID 42264)	1	1.96e7	3.59e7		3.37e7	1.46e7	inactive
Lcp1 (GeneID 35817)	1	5.73e7	4.04e7		2.59e7	1.81e7	inactive
loh (GeneID 34435)	1	2.25e7	5.15e7		1.81e7	2.30e7	inactive
loh (GeneID 34435)	2	5.00e7	5.81e7		2.32e7	2.46e7	inactive
CG5569 (GeneID 37783)	1	4.24e7	5.31e7		2.09e7	2.32e7	inactive
CG14187 (GeneID 40199)	1	3.13e7	5.00e7		1.55e7	2.11e7	inactive
CG18234 (GeneID 40024)	1	3.99e7	6.43e7		1.95e7	2.57e7	inactive
alphaTry (GeneID 48316)	1	2.63e7	3.78e7		1.43e7	1.77e7	inactive
nsr (GeneID 37577)	1	3.56e7			1.86e7		inactive
nsr (GeneID 37577)	2	3.22e7	3.63e7		1.73e7	1.86e7	inactive
CG4849 (GeneID 43358)	1	2.56e7	1.99e7		1.60e7	1.19e7	inactive
drpr (GeneID 38218)	1	4.15e7	4.33e7		2.18e7	1.88e7	inactive
drpr (GeneID 38218)	2	3.70e7	4.10e7		1.85e7	1.83e7	inactive
CG4716 (GeneID 36471)	1	2.36e7	2.92e7		1.17e7	1.33e7	inactive
Usp1 (GeneID 43462)	1	2.47e7	3.00e7		1.10e7	1.38e7	inactive
CG17272 (GeneID 42465)	1	4.16e7	5.19e7		5.85e7	2.12e7	inactive
Ucp4A (GeneID 32764)	1	3.28e7	3.16e7		1.65e7	1.66e7	inactive
CG6220 (GeneID 36520)	1	3.57e7	4.72e7		1.71e7	2.12e7	inactive
Ance-5 (GeneID 37980)	1	3.10e7			1.49e7		inactive
CG30196 (GeneID 37595)	1	3.14e7	4.39e7		1.71e7	2.04e7	inactive
Cyp9b2 (GeneID 35635)	1	3.28e7	4.33e7		1.63e7	1.88e7	inactive
Srp19 (GeneID 38815)	1	2.01e7	3.18e7		1.14e7	1.57e7	inactive
slpr (GeneID 44111)	1	2.29e7	3.34e7		1.11e7	1.50e7	inactive
slpr (GeneID 44111)	2	3.46e7	3.98e7		1.62e7	1.83e7	inactive
Irbp18 (GeneID 39243)	1	2.58e7	3.45e7		1.35e7	1.71e7	inactive
mri (GeneID 38028)	1	4.46e7	4.43e7		2.03e7	2.16e7	inactive
CG4766 (GeneID 31533)	1	3.13e7	3.57e7		1.57e7	1.70e7	inactive
lqfR (GeneID 42632)	1	3.18e7	3.37e7		1.69e7	1.53e7	inactive
lqfR (GeneID 42632)	2	3.29e7	3.96e7		4.41e7	1.96e7	inactive
Lcp65Ab2 + Lcp65Ab1	1	2.91e7	5.28e7		1.44e7	2.09e7	inactive
Lcp65Ab2 + Lcp65Ab1	2	2.74e7	4.05e7		1.34e7	1.75e7	inactive
Pfdn6 (GeneID 40176)	1	2.69e7	4.02e7		1.32e7	1.77e7	inactive
Tbcd (GeneID 33389)	1	3.58e7			1.70e7		inactive
Grl58a (GeneID 37509)	1	4.67e7	5.49e7		2.32e7	2.34e7	inactive
sphinx2 (GeneID 38833)	1	3.59e7	5.10e7		1.78e7	2.80e7	inactive

The list goes on, starting with the last 4 of the part before.
Gene	dsRNA no.	calcium entry signal, replicate 1 (fluorescence units)	calcium entry signal, replicate 2 (fluorescence units)	entry to resting ratio	resting calcium signal, replicate 1 (fluorescence units)	resting calcium signal, replicate 2 (fluorescence units)	Outcome
Pfdn6 (GeneID 40176)	1	2.69e7	4.02e7		1.32e7	1.77e7	inactive
Tbcd (GeneID 33389)	1	3.58e7			1.70e7		inactive
Grl58a (GeneID 37509)	1	4.67e7	5.49e7		2.32e7	2.34e7	inactive
sphinx2 (GeneID 38833)	1	3.59e7	5.10e7		1.78e7	2.80e7	inactive
adp (GeneID 37073)	1	3.39e7	4.35e7		1.59e7	2.76e7	inactive
sona (GeneID 37762)	1	3.86e7	4.91e7		1.83e7	2.26e7	inactive
sona (GeneID 37762)	2	4.13e7	4.76e7		2.07e7	2.27e7	inactive
sona (GeneID 37762)	3	3.94e7	4.48e7		2.07e7	2.15e7	inactive
Cchl (GeneID 42590)	1	3.45e7	3.30e7		1.67e7	1.53e7	inactive
CG34459 (GeneID 5740101)	1	3.18e7	3.84e7		1.39e7	1.91e7	inactive
CG15322 (GeneID 33012)	1	5.40e7	6.39e7		2.79e7	2.85e7	inactive
CG15322 (GeneID 33012)	2	3.53e7	3.31e7		1.69e7	1.52e7	inactive
gish (GeneID 49701)	1	3.57e7	2.88e7		1.62e7	1.35e7	inactive
CG32655 (GeneID 318143)	1	3.37e7	2.73e7		1.53e7	1.39e7	inactive
CG9312 (GeneID 41686)	1	2.04e7	2.83e7		9.78e6	1.39e7	inactive
CG32812 (GeneID 31074)	1	4.02e7	3.77e7	2.3	1.78e7	1.65e7	inactive
rut (GeneID 32406)	1	3.07e7	2.52e7		1.73e7	1.39e7	inactive
rut (GeneID 32406)	2	4.77e7	2.97e7		2.16e7	1.27e7	inactive
Ero1L (GeneID 38500)	1	4.70e7	3.93e7		3.29e7	1.77e7	inactive
Idgf5 (GeneID 37104)	1	3.99e7	3.11e7		1.76e7	1.67e7	inactive
AANATL3 (GeneID 35285)	1	3.41e7	4.15e7		1.79e7	1.89e7	inactive
CG30016 (GeneID 246393)	1	5.46e7	4.46e7		2.41e7	1.81e7	inactive
CG13887 (GeneID 38096)	1	2.56e7	2.41e7		1.28e7	1.11e7	inactive
CG14086 (GeneID 40100)	1	2.70e7	4.23e7		1.34e7	1.80e7	inactive
abo (GeneID 44793)	1	4.00e7	4.40e7		1.89e7	2.05e7	inactive
CG10280 (GeneID 40740)	1	4.36e7	6.14e7		2.01e7	2.66e7	inactive
CG8545 (GeneID 36365)	1	2.34e7	3.23e7		1.26e7	1.64e7	inactive
CG15459 (GeneID 33036)	1	5.35e7	6.23e7		2.48e7	2.82e7	inactive
CG15459 (GeneID 33036)	2	4.08e7	3.21e7		2.38e7	1.56e7	inactive
